Legend:
[1] = in vivo; settings: mouse, po, 38 mg/kg
Excerpt: Compounds were solubilized in propylene glycol, except for the Hetacillin

[2] = in vivo; settings: mouse, po, 38 mg/kg, Blood Level

Which concentration at 1 h [1] does the source give for CC1(CCl)C(C(=O)O)N2C(=O)CC2S1(=O)=O (stereo not drawn) [BL-P2013, Potassium 2β-Chloromethyl-2α-methylpenam-3α-carboxylate Sulfone] here?
Its concentration at 1 h is 2100 ng/mL.

What about the concentration at 1 h [2] of the same compound?
The concentration at 1 h was 2100 ng/mL.

Source: US4380512A, “2β-Chloromethyl-2α-methylpenam-3α-carboxylic acid sulfone and salts and esters thereof” (Bristol-Myers Company, priority 1981, dated 1983)
